No constants are given. Whether binding was seen depends on the method and setting. Some binding calls cover weakened binding; strength is not graded here.

Protein sequences, listed by entry. Tags and fused reporters are not part of them. Lines headed by an entry give the natural chain unless they say otherwise; changes in a name come on top.
UniProt Q07011: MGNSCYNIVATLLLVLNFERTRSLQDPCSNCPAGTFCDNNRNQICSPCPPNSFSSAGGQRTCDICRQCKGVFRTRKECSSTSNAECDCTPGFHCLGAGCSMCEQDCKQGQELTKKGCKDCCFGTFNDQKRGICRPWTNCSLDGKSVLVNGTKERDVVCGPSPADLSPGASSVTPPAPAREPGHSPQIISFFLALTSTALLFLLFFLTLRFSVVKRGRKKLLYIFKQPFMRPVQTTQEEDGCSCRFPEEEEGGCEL

In the experiment the target is human CD137 expressed on cells (human) (UniProt Q07011). The experiment is described as follows: flow cytometry, pre-stimulated human CD8+ T cells, biotinylated-PSMA detection.

B1: 4.1-6GS-1.113 (bispecific antibody)
chain: EVQLVESGGGVVQPGRSLRLSCAASGFSFSGYGMHWVRQAPGKGLEWVAYISYDGSNKYYADSVKGRFTISRDNSKNTLYLQMNSLRAEDTAVYYCAKDPAWGLRLGESSSYDFDIWGQGTMVTVSSGGGGSGGGGSGGGGSGGGGSGGGGSGGGGSEVQLVESGGGLVQPGGSLRLSCAASGFTLSNYWMNWVRQAPGKGLEWVANINQDGSERYYVDSVKGRFTISRDNAKNSLYLQMNSLRAEDTAVYYCARGGEGYGVDHYGLDVSGQGTTVTVSS
For B1, the binding result is reported as “binds”.

The values above are taken from patent US20200362051A1.
